Experiment in all cases: affinity purification with mass spectrometry; Avi-tagged bait, biotinylated by co-expressed BirA, overexpressed in HEK293T; lysate (50 mM Tris-Cl pH 7.4, 100 mM NaCl, 0.4% NP40, DNAse I) on streptavidin agarose 2 h; SDS gel, iTRAQ quantitative MS against mock-transfected control
In assay [1] the target is T1, Avi-tagged KDM3A (human) (UniProt Q9Y4C1).
T1 sequence (chain, biotin on the Avi-tag (by co-expressed BirA)): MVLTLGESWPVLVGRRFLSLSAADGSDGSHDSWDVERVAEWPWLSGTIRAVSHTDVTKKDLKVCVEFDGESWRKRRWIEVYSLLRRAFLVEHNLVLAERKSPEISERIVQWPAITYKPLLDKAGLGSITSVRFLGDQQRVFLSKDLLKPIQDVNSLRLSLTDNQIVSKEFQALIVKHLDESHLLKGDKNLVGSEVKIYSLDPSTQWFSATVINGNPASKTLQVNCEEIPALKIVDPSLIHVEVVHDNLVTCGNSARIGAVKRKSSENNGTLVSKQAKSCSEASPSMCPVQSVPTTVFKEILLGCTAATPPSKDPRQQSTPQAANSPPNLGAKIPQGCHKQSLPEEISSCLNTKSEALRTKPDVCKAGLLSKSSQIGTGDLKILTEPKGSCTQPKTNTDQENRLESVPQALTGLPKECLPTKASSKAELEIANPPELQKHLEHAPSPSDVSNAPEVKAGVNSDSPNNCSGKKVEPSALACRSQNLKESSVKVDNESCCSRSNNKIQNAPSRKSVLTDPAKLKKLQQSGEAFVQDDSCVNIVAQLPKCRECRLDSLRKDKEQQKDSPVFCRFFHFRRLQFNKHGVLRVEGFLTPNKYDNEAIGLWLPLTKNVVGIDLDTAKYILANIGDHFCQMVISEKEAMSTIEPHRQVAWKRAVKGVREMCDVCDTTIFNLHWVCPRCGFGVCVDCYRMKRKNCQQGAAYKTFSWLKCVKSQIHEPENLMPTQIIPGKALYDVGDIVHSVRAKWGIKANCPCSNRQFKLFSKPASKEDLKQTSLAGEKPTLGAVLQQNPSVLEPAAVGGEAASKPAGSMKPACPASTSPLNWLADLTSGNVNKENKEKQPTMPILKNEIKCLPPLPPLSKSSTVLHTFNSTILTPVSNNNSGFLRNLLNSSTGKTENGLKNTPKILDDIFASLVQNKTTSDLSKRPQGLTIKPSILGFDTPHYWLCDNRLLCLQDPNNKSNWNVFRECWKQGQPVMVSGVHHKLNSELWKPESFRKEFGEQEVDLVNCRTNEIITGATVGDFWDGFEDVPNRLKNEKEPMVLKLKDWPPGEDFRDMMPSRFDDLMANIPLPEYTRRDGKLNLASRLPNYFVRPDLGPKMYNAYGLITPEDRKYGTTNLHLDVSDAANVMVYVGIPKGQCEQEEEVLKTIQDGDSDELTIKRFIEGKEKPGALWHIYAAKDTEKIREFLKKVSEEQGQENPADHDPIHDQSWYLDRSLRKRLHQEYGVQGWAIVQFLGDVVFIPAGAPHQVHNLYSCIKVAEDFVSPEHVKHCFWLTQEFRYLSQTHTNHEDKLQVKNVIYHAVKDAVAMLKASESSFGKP

By UniProt entry, the sequences of proteins in these tests, tags left out. Residues count along the entry.
UniProt Q7LBC6: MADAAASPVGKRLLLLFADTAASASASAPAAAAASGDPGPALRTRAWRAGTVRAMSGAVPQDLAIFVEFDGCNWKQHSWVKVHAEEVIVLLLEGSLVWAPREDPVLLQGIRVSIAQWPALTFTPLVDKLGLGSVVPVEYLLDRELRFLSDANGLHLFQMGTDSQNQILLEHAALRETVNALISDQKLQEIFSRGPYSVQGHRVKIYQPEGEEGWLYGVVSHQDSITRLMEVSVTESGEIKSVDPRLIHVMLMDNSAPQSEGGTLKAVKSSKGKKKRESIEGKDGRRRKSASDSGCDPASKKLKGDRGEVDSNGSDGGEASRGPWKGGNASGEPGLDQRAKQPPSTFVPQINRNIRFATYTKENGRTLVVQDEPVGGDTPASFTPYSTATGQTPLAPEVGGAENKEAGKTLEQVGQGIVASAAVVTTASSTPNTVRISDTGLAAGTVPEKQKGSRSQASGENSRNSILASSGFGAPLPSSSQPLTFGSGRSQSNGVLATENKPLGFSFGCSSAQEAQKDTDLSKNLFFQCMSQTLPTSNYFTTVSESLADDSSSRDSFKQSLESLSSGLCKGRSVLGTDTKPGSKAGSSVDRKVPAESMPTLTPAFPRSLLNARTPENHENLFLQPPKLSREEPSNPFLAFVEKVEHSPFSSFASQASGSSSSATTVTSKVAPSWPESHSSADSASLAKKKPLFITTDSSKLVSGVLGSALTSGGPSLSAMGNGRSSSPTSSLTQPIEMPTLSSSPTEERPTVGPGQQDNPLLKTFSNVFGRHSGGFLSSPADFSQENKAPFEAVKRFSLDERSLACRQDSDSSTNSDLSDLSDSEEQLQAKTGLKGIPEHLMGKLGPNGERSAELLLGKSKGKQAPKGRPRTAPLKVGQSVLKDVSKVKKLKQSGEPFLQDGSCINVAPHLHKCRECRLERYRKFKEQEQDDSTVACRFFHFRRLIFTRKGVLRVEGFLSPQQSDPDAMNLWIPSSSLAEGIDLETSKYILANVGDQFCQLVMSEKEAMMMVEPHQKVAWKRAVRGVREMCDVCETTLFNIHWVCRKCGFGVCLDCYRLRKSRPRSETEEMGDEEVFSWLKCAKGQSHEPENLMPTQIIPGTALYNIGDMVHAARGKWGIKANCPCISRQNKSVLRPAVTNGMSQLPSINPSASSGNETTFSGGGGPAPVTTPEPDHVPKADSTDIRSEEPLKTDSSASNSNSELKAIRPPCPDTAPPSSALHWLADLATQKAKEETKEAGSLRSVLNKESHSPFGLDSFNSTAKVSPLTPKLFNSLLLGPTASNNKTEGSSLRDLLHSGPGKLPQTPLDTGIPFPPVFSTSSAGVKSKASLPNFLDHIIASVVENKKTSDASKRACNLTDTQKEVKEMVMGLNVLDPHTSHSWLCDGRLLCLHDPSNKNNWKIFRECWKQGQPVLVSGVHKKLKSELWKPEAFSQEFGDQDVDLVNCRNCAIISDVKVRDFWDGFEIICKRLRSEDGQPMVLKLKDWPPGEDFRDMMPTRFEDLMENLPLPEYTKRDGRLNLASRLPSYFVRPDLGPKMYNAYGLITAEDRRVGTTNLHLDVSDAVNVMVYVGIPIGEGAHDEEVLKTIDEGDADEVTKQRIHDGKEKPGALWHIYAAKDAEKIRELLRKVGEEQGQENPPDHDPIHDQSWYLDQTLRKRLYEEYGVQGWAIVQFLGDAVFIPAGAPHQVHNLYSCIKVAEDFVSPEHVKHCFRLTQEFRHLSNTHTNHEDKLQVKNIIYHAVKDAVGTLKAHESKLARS
UniProt O60568, residues 25-738: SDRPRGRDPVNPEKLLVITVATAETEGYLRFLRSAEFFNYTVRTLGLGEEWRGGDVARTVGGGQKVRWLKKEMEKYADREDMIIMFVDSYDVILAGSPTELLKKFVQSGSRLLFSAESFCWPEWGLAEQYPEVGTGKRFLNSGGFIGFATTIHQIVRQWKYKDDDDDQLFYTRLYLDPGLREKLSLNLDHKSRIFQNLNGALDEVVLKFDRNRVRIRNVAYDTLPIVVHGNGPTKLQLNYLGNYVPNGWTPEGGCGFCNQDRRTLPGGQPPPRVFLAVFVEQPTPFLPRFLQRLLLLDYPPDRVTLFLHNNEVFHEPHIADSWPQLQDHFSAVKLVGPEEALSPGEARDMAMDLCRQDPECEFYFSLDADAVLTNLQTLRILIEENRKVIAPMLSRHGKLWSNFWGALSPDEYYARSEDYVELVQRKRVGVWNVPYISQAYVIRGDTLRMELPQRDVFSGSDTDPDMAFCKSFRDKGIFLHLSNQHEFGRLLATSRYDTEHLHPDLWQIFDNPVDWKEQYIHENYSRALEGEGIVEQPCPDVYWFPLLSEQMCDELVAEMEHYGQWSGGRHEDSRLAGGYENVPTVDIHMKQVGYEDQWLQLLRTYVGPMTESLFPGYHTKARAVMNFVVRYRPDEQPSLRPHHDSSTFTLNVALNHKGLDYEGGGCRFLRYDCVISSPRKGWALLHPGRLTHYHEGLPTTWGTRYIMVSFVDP
UniProt Q8N9R8: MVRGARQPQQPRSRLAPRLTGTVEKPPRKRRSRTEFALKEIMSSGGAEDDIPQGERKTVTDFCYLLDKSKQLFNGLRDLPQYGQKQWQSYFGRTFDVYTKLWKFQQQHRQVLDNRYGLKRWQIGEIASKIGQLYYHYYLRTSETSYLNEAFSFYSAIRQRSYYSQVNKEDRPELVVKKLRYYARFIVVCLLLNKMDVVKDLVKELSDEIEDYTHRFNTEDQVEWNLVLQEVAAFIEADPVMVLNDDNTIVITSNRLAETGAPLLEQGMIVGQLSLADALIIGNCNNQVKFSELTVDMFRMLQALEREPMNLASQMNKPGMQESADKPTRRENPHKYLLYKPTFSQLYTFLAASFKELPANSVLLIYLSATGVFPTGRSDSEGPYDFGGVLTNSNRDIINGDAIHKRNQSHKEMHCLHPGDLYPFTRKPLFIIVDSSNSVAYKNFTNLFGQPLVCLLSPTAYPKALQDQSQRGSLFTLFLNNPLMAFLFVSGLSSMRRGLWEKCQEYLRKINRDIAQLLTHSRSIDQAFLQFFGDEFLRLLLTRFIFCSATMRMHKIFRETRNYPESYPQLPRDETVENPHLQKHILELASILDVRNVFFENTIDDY

Assay [2] concerns the target Avi-tagged KDM3B (human) (UniProt Q7LBC6).
Assay [3] shares this target. This is another data set of the same source.
In assay [4] the target is T1, Avi-tagged KDM3A (human). The source holds these as a separate data set.

Like-named read-outs stand apart in the source and are kept apart here. Results are given in words; binding and its absence hold for the method and conditions named. Binding seen in cells or lysates may run through a third protein. Here binding means that the protein was enriched with, or labelled near, the bait; the list need not be complete. For some assays here: Where a sequence is shown, tags or fusion partners need not be part of it.

Here are results for 7 molecules from article PMC3623819.

As for HSP8 (human (endogenous in HEK293T)), the binding result in the assay with Avi-tagged KDM3A (human) [1] is listed as “binds”.

On to “procollagen-lysine dioxygenase PLOD3 (from UniProt O60568 25-738) (enzyme)”, for which the binding entry with Avi-tagged KDM3B (human) [2] is recorded as “binds”.

As for “SCAI (Suppressor of cancer cell invasion), endogenous (from UniProt Q8N9R8 1-606)”, the binding result in the assay with Avi-tagged KDM3B (human) [2] was “binds”.

B1: procollagen-lysine dioxygenase PLOD2 (enzyme, UniProt O00469 26-737)
chain: ADSEKPSSIPTDKLLVITVATKESDGFHRFMQSAKYFNYTVKVLGQGEEWRGGDGINSIGGGQKVRLMKEVMEHYADQDDLVVMFTECFDVIFAGGPEEVLKKFQKANHKVVFAADGILWPDKRLADKYPVVHIGKRYLNSGGFIGYAPYVNRIVQQWNLQDNDDDQLFYTKVYIDPLKREAINITLDHKCKIFQTLNGAVDEVVLKFENGKARAKNTFYETLPVAINGNGPTKILLNYFGNYVPNSWTQDNGCTLCEFDTVDLSAVDVHPNVSIGVFIEQPTPFLPRFLDILLTLDYPKEALKLFIHNKEVYHEKDIKVFFDKAKHEIKTIKIVGPEENLSQAEARNMGMDFCRQDEKCDYYFSVDADVVLTNPRTLKILIEQNRKIIAPLVTRHGKLWSNFWGALSPDGYYARSEDYVDIVQGNRVGVWNVPYMANVYLIKGKTLRSEMNERNYFVRDKLDPDMALCRNAREMGVFMYISNRHEFGRLLSTANYNTSHYNNDLWQIFENPVDWKEKYINRDYSKIFTENIVEQPCPDVFWFPIFSEKACDELVEEMEHYGKWSGGKHHDSRISGGYENVPTDDIHMKQVDLENVWLHFIREFIAPVTLKVFAGYYTKGFALLNFVVKYSPERQRSLRPHHDASTFTINIALNNVGEDFQGGGCKFLRYNCSIESPRKGWSFMHPGRLTHLHEGLPVKNGTRYIAVSFIDP
For the molecule B1, in the assay with Avi-tagged KDM3B (human) [3], the binding entry is given as “binds”.

B2: procollagen-lysine dioxygenase PLOD1 (enzyme, UniProt Q02809 19-727)
chain: KGDAKPEDNLLVLTVATKETEGFRRFKRSAQFFNYKIQALGLGEDWNVEKGTSAGGGQKVRLLKKALEKHADKEDLVILFADSYDVLFASGPRELLKKFRQARSQVVFSAEELIYPDRRLETKYPVVSDGKRFLGSGGFIGYAPNLSKLVAEWEGQDSDSDQLFYTKIFLDPEKREQINITLDHRCRIFQNLDGALDEVVLKFEMGHVRARNLAYDTLPVLIHGNGPTKLQLNYLGNYIPRFWTFETGCTVCDEGLRSLKGIGDEALPTVLVGVFIEQPTPFVSLFFQRLLRLHYPQKHMRLFIHNHEQHHKAQVEEFLAQHGSEYQSVKLVGPEVRMANADARNMGADLCRQDRSCTYYFSVDADVALTEPNSLRLLIQQNKNVIAPLMTRHGRLWSNFWGALSADGYYARSEDYVDIVQGRRVGVWNVPYISNIYLIKGSALRGELQSSDLFHHSKLDPDMAFCANIRQQDVFMFLTNRHTLGHLLSLDSYRTTHLHNDLWEVFSNPEDWKEKYIHQNYTKALAGKLVETPCPDVYWFPIFTEVACDELVEEMEHFGQWSLGNNKDNRIQGGYENVPTIDIHMNQIGFEREWHKFLLEYIAPMTEKLYPGYYTRAQFDLAFVVRYKPDEQPSLMPHHDASTFTINIALNRVGVDYEGGGCRFLRYNCSIRAPRKGWTLMHPGRLTHYHEGLPTTRGTRYIAVSFVDP
For B2, the binding entry in the assay with Avi-tagged KDM3B (human) [3] is listed as “binds”.

B3: suppressor of G2 allele of SKP1 homolog (SUGT1) (protein, UniProt Q9Y2Z0 1-365)
chain: MAAAAAGTATSQRFFQSFSDALIDEDPQAALEELTKALEQKPDDAQYYCQRAYCHILLGNYCVAVADAKKSLELNPNNSTAMLRKGICEYHEKNYAAALETFTEGQKLDIETGFHRVGQAGLQLLTSSDPPALDSQSAGITGADANFSVWIKRCQEAQNGSESEVWTHQSKIKYDWYQTESQVVITLMIKNVQKNDVNVEFSEKELSALVKLPSGEDYNLKLELLHPIIPEQSTFKVLSTKIEIKLKKPEAVRWEKLEGQGDVPTPKQFVADVKNLYPSSSPYTRNWDKLVGEIKEEEKNEKLEGDAALNRLFQQIYSDGSDEVKRAMNKSFMESGGTVLSTNWSDVGKRKVEINPPDDMEWKKY
B3: the binding entry with Avi-tagged KDM3A (human) [4] is “binds”.

B4: TRAP1 (protein, UniProt Q12931 60-704)
chain: STQTAEDKEEPLHSIISSTESVQGSTSKHEFQAETKKLLDIVARSLYSEKEVFIRELISNASDALEKLRHKLVSDGQALPEMEIHLQTNAEKGTITIQDTGIGMTQEELVSNLGTIARSGSKAFLDALQNQAEASSKIIGQFGVGFYSAFMVADRVEVYSRSAAPGSLGYQWLSDGSGVFEIAEASGVRTGTKIIIHLKSDCKEFSSEARVRDVVTKYSNFVSFPLYLNGRRMNTLQAIWMMDPKDVREWQHEEFYRYVAQAHDKPRYTLHYKTDAPLNIRSIFYVPDMKPSMFDVSRELGSSVALYSRKVLIQTKATDILPKWLRFIRGVVDSEDIPLNLSRELLQESALIRKLRDVLQQRLIKFFIDQSKKDAEKYAKFFEDYGLFMREGIVTATEQEVKEDIAKLLRYESSALPSGQLTSLSEYASRMRAGTRNIYYLCAPNRHLAEHSPYYEAMKKKDTEVLFCFEQFDELTLLHLREFDKKKLISVETDIVVDHYKEEKFEDRSPAAECLSEKETEELMAWMRNVLGSRVTNVKVTLRLDTHPAMVTVLEMGAARHFLRMQQLAKTQEERAQLLQPTLEINPRHALIKKLNQLRASEPGLAQLLVDQIYENAMIAAGLVDDPRAMVGRLNELLVKALERH
Take B4: the binding result with Avi-tagged KDM3B (human) [3] and with Avi-tagged KDM3A (human) [4] was “binds” each time.
